Record: PubChem BioAssay AID743121 (NCATS, 2013)

Screen: 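Knock-downs that sensitise breast cancer cells to camptothecin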 (primary screen)
Cells: MDA-MB-231 cells, a human breast cancer line
Reagents: single siRNA against human genes, 20 nM siRNA (0.8 pmol per well)
Time to read-out: 120 h (drug added 48 h after transfection, read 72 h later)
Conditions: camptothecin 20 nM (about EC30) for 72 h; vehicle 0.1% DMSO in parallel plates
Read-out: 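CellTiter-Glo ATP signal, scaled to control siRNA as percent viability; sensitisation given as log2 of untreated divided by camptothecin-treated viability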
Direction: log2 vehicle/camptothecin viability: higher = stronger sensitisation to camptothecin; viability with camptothecin and viability without drug: higher = more viable cells
Call rule: 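Active genes have an RSA gene-level p-value below 0.001, computed from the ratios of their separate siRNAs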
Here is one part, drawn at random, of about 26,000 deposited reagents. Over the whole deposit, 167 (0.63%) are marked active. 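Calls are per gene from RSA p-values that are not deposited; an individual active-marked siRNA can sensitise only weakly.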 The numbers tell different reagents against one gene apart.

Target gene	reagent	log2 vehicle/camptothecin viability	viability with camptothecin (% of control)	viability without drug (% of control)	Outcome
TENM2 (teneurin transmembrane protein 2)	1	0.563	55.9	82.5	inactive
TENM2 (teneurin transmembrane protein 2)	2	-0.343	109	85.6	inactive
TENM2 (teneurin transmembrane protein 2)	3	-0.237	93.5	79.3	inactive
TENM2 (teneurin transmembrane protein 2)	4	-0.362	60.9	47.4	inactive
MYC (MYC proto-oncogene, bHLH transcription factor)	1	-0.575	72.8	48.9	inactive
MYC (MYC proto-oncogene, bHLH transcription factor)	2	-0.201	51.3	44.7	inactive
MYC (MYC proto-oncogene, bHLH transcription factor)	3	-0.248	50.2	42.3	inactive
MYC (MYC proto-oncogene, bHLH transcription factor)	4	-0.474	66.3	47.8	inactive
COQ5 (coenzyme Q5, methyltransferase)	1	-0.434	56.5	41.8	inactive
COQ5 (coenzyme Q5, methyltransferase)	2	-0.251	84.7	71.2	inactive
COQ5 (coenzyme Q5, methyltransferase)	3	-0.101	95.2	88.7	inactive
COQ5 (coenzyme Q5, methyltransferase)	4	-0.313	87.4	70.3	inactive
PIGK (phosphatidylinositol glycan anchor biosynthesis class K)	1	-0.0223	81	79.8	inactive
PIGK (phosphatidylinositol glycan anchor biosynthesis class K)	2	-0.239	89.4	75.8	inactive
PIGK (phosphatidylinositol glycan anchor biosynthesis class K)	3	-0.313	92.9	74.8	inactive
PIGK (phosphatidylinositol glycan anchor biosynthesis class K)	4	-0.265	103	85.9	inactive

The list goes on, starting with the last 6 of the part before.
Target gene	reagent	log2 vehicle/camptothecin viability	viability with camptothecin (% of control)	viability without drug (% of control)	Outcome
COQ5 (coenzyme Q5, methyltransferase)	3	-0.101	95.2	88.7	inactive
COQ5 (coenzyme Q5, methyltransferase)	4	-0.313	87.4	70.3	inactive
PIGK (phosphatidylinositol glycan anchor biosynthesis class K)	1	-0.0223	81	79.8	inactive
PIGK (phosphatidylinositol glycan anchor biosynthesis class K)	2	-0.239	89.4	75.8	inactive
PIGK (phosphatidylinositol glycan anchor biosynthesis class K)	3	-0.313	92.9	74.8	inactive
PIGK (phosphatidylinositol glycan anchor biosynthesis class K)	4	-0.265	103	85.9	inactive
AKAP8L (A-kinase anchoring protein 8 like)	1	-0.313	113	91.2	inactive
AKAP8L (A-kinase anchoring protein 8 like)	2	-0.0593	66	63.4	inactive
AKAP8L (A-kinase anchoring protein 8 like)	3	-0.258	74	61.9	inactive
AKAP8L (A-kinase anchoring protein 8 like)	4	-0.293	123	101	inactive
TRIM65 (tripartite motif containing 65)	1	-0.262	16.3	13.6	inactive
TRIM65 (tripartite motif containing 65)	2	-0.203	66.9	58.1	inactive
TRIM65 (tripartite motif containing 65)	3	-0.115	96.2	88.8	inactive
MCAM (melanoma cell adhesion molecule)	1	-0.0868	69.5	65.4	inactive
MCAM (melanoma cell adhesion molecule)	2	-0.285	73.1	60	inactive
MCAM (melanoma cell adhesion molecule)	3	-0.177	62.1	54.9	inactive
MCAM (melanoma cell adhesion molecule)	4	-0.349	107	83.8	inactive
MAPK9 (mitogen-activated protein kinase 9)	1	-0.244	57.9	48.9	inactive
MAPK9 (mitogen-activated protein kinase 9)	2	0.315	66.8	83.1	inactive
MAPK9 (mitogen-activated protein kinase 9)	3	-0.335	85.7	67.9	inactive
MAPK9 (mitogen-activated protein kinase 9)	4	-0.0429	87	84.4	inactive
GNB4 (G protein subunit beta 4)	1	-0.562	42.3	28.7	inactive
GNB4 (G protein subunit beta 4)	2	0.0416	83.3	85.7	inactive
GNB4 (G protein subunit beta 4)	3	0.0507	47.5	49.2	inactive
GNB4 (G protein subunit beta 4)	4	-0.173	109	96.7	inactive
SIRT1 (sirtuin 1)	1	0.132	103	113	inactive
SIRT1 (sirtuin 1)	2	0.688	42.2	67.9	inactive
SIRT1 (sirtuin 1)	3	-0.0918	115	108	inactive
SIRT1 (sirtuin 1)	4	-0.447	65.5	48.1	inactive
DOK2 (docking protein 2)	1	-0.443	81.1	59.6	inactive
DOK2 (docking protein 2)	2	0.219	34.3	39.9	inactive
DOK2 (docking protein 2)	3	-0.115	93.6	86.4	inactive
DOK2 (docking protein 2)	4	1.3	16.7	41.3	inactive
PIK3C2B	1	-0.147	46.5	41.9	inactive
PIK3C2B	2	-0.086	98.6	92.9	inactive
PIK3C2B	3	-0.279	106	87	inactive
PIK3C2B	4	-0.209	119	103	inactive
